Reference: article PMC11933467
These are yes or no findings as the source states them, for the method shown. Binding seen in cells or lysates may run through a third protein. These calls come from enrichment with a bait or labelling near it, and not all partners need be listed. For part of these data: Where a sequence is shown, tags or fusion partners need not be part of it.

By UniProt entry, the sequences of proteins in these tests, tags left out. Where a name states a change or a piece, a line headed by the entry shows the natural chain unless it says otherwise.
UniProt Q9VWS1: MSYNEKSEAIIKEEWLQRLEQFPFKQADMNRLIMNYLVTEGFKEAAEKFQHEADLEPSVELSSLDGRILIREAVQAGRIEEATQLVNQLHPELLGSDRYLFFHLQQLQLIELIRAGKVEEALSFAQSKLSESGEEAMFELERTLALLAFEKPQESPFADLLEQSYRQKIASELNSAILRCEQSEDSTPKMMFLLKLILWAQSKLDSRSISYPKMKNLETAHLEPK

How the values were obtained:
[1] = molecular target: Houki (Drosophila melanogaster (endogenous in embryos)) (UniProt Q9VWS1); test: affinity purification with mass spectrometry; anti-Houki immunoprecipitation from 0 to 1 h embryo lysate against IgG control; on-bead digestion, LC-MS/MS; three biological replicates
[2] = molecular target: Muskelin (Drosophila melanogaster (endogenous in embryos and oocytes)); test: affinity purification with mass spectrometry; anti-Muskelin immunoprecipitation from 0 to 1 h control (mCherry) or RanBPM knockdown embryo lysate against control immunoprecipitation; LC-MS/MS; three biological replicates

Binder	binding [1]	binding [2]
Cup (protein, UniProt Q9VMA3 1-1117) MQMAEAEQENGAGALKIATNAGATDRPAHQQLPLPVEDQQDEVLTPAEKGKFEYPPPPPPPTPVQAPLATKATALNASQEHDDDEANSEKWEDPCAPPPPPPLPTSAFLATGLGYLKLPAFKLKDALEKAITKLEANKRTLKASPESSRSIKNKNVVALEMLPRRSNPETIGDGSMLASTSTAVMLQTKKPAVIVEMERRCKIINLLAKQNQILESISGEAIPMHGPSKHLHEDEGLTLQVLSARASTPYTQPSSMLSCTAVSCDLEHDSPRKQVASKEAVPEQQSSQVQQKRPPSTGIHKPGSLRAPKAVRPTTAPVVSSKPVKSYTRSRLMDIRNGMFNALMHRSKESFVMPRIATCDDIELEGRLRRMNIWRTSDGTRFRTRSTTANLNMNNNNNNECMPAFFKNKNKPNLISDESIIQSQPPQPQTEFQDPAIVNQRRIGSGRLNHSKWGYNDEDYHSYHNGKSQHMEEVNSKNSKNMTVLQFFDNGEISSQPQRRPNTPVMGMSINRSENDTLHSNESSEDLSRANENYVKRVMSGFLVVSKPKSRDVEDRHHRRYRNQNEEPEWFSCGPTSRLDTIELCGFDEDEEKMLKEGNKNHGLGETERETSKQKMDHKYKWTHAEPMGRSKYMPKHDTNNNHNVENMNNVMATEHQQQKEEKRPGSGRSFQFDKFNQSQQNYESSSYVNHQQPPQTQPQQMQQQSNTNTNNSKFMSFFANEGNSSSSSLNEFFKQAINQGHGNNPEQPKSLGHIGQMPSVDQLEAKWRRNSLNNVGETANKQTDNFQKLIGSLSSAKPQSQAVGYDAISNFIMQQQQYQQQQQKQHLIIQQQQQHTAFLASLQLKAILGRADTQLLLLRLTKGEISKHGLLVQLANPRLTDMDREAITAVLQFTNTQQQQQQHKQQLDMLSSTVIASQLQNLHNLAIVQQTLAARQQPQHNPQTQAPHQLSQEDLQAHANVIMRNAVMKRKIEEQTSKLINGGAKHQAQQQYLNRGQQRQARPDANSNALLHALISGGGNNHASGYPMNGQPQKHHSNLRFGDNQNFQSFESNQPHFATQYKQQYQQSQQQHPHQQPQQLNSLHQNNAGAVNSFNKAQMQAQSAISMLPNSGDEFH	binds	binds
ME31B-GFP (protein, UniProt P23128 1-459) MMTEKLNSGHTNLTSKGIINDLQIAGNTSDDMGWKSKLKLPPKDNRFKTTDVTDTRGNEFEEFCLKRELLMGIFEKGWERPSPIQEAAIPIALSGKDVLARAKNGTGKTGAYCIPVLEQIDPTKDYIQALVMVPTRELALQTSQICIELAKHLDIRVMVTTGGTILKDDILRIYQKVQLIIATPGRILDLMDKKVADMSHCRILVLDEADKLLSLDFQGMLDHVILKLPKDPQILLFSATFPLTVKNFMEKHLREPYEINLMEELTLKGVTQYYAFVQERQKVHCLNTLFSKLQINQSIIFCNSTQRVELLAKKITELGYCCYYIHAKMAQAHRNRVFHDFRQGLCRNLVCSDLFTRGIDVQAVNVVINFDFPRMAETYLHRIGRSGRFGHLGIAINLITYEDRFDLHRIEKELGTEIKPIPKVIDPALYVANVGASVGDTCNNSDLNNSANEEGNVSK		binds
